From patent USRE37525E1, “Method for treating infectious respiratory diseases” (priority 1991, dated 2002)
Where “and” joins values, the source holds several entries; their conditions need not be identical. Equal entries are not always repeated. At least one structure is not confirmed: it was looked up by name or label, or the drawing left a doubt.

Tests used:
[1] = tested on: parainfluenza virus type 3 (PIV3); format: in vivo
Description: (§1) Triamcinolone acetonide was selected as the prototypical corticosteroid for the combined anti-infective and anti-inflammatory studies. […] Cotton rats were infected (Day 0) by intranasal instillation of PIV3 (10^6 pfu/animal) or RSV (10^5 pfu/animal). Animals were anesthetized with methoxyflurane, and the inoculating virus was delivered in a volume of 0.1 ml/100 gm body weight of the animal. On Day 3, animals were anesthetized with methoxyflurane, and treated by intranasal instillation of anti-infective agent or a combination of anti-infective agent and corticosteroid, in a volume of 0.1 ml/100 gm body weight. The same treatment was repeated once per day on Days 4 and 5. For purposes of comparison, control animals were infected concurrently on Day 0, but received no treatment on Days 3, 4, or 5. On Day 6, the time of maximum pulmonary pathology in infected, untreated animals, all animals were euthanized by carbon dioxide intoxication.
(§2) Three experiments were performed using combined therapy: (1) anti-PIV3 antibody (100 mg/kg) and triamcinolone acetonide (4 mg/kg) were used to treat PIV3 infection; (2) anti-RSV antibody (25 mg/kg) and triamcinolone acetonide (4 mg/kg) were used to treat RSV infection; (3) ribavirin (20 mg/kg) and triamcinolone acetonide (4 mg/kg) were used to treat RSV infection. All agents were administered topically as described above in “Drug Testing”.
(§3) Cotton rats were challenged to induce infection in the following manner. The frozen virus (usually at a concentration of 10^5 pfu/ml) was thawed and then immediately instilled (0.05 ml/nostril) into anesthetized cotton rats. […] Lungs were removed from the animal, homogenized in tissue culture fluid, and cultured on HEp2 monolayers. The amount of virus was then quantified.
(§4) A single pool of purified human IgG, with known neutralizing antibody titer, was used with each virus throughout the experiments, to minimize experimental variability. […] Once determined, this dose was used in all subsequent experiments.
(§5) Titrations of virus in pulmonary tissues. Animals were sacrificed by carbon dioxide intoxication. After the thoracic wall was removed aseptically, the lungs were dissected from the heart, and homogenized in a TenBroeck tissue grinder in 10 parts (v:w) of Hanks, balanced salt solution, modified for stabilizing virus by the addition of 0.218 M sucrose, 4.4 mM glutamate, 3.8 mM KH2PO4 and 7.2 mM K2HPO4. After low-speed centrifugation, serial ten-fold dilutions of homogenate, each in duplicate, were applied to cell monolayers in multi-well culture dishes. HEp-2 cells were used for RSV assay, and MA-104 cells for PIV3 assay. After four days incubation at 37° C. under methylcellulose overlay, the cells were stained with crystal violet in glutaraldehyde solution, and the plaques counted. Viral titers were expressed as a geometric mean, plus or minus the standard error, for all animals (a minimum of four) at a given time point. The Student t-test of summary data was used to compare different treatment groups.

[2] = tested on: respiratory syncytial virus (RSV); format: in vivo; conditions: Table 8; triamcinolone acetonide 4 mg/kg, ribavirin 20 mg/kg, topical Days 3, 4, 5
Description: as §1, §2, §3, §4, §5

CC1(C)O[C@@H]2C[C@H]3[C@@H]4CCC5=CC(=O)C=C[C@]5(C)[C@@]4(F)[C@@H](O)C[C@]3(C)[C@]2(C(=O)CO)O1 [Triamcinolone, triamcinolone acetonide]
Pulmonary Viral Titers, Day 6 ([1]; Day 6, triamcinolone intranasal Days 3-5): 10^5.3 pfu/gm
Pulmonary Viral Titers, Day 8 ([1]; Day 8, triamcinolone intranasal Days 3-5): 10^4.9 pfu/gm
Pulmonary Viral Titers, Day 10 ([1]; Day 10, triamcinolone intranasal Days 3-5): 10^4.1 pfu/gm
Day 6 Titer ([1]; individual animals, Table 6): 10^4.6 and 10^4.4 and 10^4.7
Day 6 Titer [2]: 10^5.2
